Source: the supplement of paper PMC10849652
The other results are listed elsewhere or left out.

Sequences of proteins named here, by UniProt entry; tags and fusion partners are left off. A change or cut given only in a name is not applied to a line headed by its entry.
UniProt Q9NXE8: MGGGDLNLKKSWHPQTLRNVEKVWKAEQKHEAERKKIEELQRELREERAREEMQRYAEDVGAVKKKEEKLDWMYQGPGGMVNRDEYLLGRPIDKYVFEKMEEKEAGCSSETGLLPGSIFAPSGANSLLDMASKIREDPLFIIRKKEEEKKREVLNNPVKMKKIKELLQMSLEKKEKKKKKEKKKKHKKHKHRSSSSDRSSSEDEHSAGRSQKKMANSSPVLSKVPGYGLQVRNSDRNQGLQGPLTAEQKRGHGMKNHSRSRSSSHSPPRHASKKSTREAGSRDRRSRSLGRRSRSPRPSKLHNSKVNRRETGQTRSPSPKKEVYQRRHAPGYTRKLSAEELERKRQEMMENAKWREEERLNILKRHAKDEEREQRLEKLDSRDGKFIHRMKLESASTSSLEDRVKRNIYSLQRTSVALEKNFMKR
UniProt Q96F07, whole entry, looked up: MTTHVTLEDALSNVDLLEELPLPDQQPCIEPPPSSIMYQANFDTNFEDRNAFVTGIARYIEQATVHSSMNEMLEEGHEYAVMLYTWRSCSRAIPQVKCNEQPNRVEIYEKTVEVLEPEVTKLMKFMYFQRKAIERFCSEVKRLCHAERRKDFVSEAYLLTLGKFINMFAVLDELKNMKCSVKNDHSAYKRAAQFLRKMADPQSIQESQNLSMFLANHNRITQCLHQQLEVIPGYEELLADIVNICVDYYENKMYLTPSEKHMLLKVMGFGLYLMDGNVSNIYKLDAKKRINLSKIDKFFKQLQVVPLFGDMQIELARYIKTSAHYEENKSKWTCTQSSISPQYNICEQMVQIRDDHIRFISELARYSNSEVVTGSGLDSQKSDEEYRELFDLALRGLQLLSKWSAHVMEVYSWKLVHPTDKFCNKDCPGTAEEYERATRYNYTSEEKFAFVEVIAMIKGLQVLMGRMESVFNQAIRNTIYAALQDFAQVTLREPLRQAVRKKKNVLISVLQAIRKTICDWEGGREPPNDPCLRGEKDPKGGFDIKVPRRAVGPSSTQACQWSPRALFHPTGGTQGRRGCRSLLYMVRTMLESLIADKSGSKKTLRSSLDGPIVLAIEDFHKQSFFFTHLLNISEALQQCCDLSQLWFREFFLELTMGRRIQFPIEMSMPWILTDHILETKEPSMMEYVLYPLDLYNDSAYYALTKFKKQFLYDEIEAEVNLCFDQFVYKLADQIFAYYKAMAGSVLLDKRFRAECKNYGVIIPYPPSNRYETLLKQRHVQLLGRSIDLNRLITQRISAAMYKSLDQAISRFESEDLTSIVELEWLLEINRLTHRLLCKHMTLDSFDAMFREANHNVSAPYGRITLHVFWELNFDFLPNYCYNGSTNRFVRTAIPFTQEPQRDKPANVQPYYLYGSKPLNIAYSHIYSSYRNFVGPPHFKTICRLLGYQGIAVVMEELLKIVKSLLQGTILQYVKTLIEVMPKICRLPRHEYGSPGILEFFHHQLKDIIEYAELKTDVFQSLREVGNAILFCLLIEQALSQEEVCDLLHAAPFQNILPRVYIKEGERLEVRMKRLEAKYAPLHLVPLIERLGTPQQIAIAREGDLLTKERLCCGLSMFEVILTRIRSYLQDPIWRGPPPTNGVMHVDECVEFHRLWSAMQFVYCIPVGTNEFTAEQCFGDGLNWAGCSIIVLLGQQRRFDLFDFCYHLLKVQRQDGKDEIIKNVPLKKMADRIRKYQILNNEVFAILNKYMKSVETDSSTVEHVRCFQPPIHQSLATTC
UniProt Q9NWV4: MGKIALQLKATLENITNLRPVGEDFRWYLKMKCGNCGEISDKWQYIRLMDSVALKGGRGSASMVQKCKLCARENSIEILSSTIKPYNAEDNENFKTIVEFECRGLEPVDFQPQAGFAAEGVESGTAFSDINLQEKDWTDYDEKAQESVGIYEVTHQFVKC
UniProt P14868: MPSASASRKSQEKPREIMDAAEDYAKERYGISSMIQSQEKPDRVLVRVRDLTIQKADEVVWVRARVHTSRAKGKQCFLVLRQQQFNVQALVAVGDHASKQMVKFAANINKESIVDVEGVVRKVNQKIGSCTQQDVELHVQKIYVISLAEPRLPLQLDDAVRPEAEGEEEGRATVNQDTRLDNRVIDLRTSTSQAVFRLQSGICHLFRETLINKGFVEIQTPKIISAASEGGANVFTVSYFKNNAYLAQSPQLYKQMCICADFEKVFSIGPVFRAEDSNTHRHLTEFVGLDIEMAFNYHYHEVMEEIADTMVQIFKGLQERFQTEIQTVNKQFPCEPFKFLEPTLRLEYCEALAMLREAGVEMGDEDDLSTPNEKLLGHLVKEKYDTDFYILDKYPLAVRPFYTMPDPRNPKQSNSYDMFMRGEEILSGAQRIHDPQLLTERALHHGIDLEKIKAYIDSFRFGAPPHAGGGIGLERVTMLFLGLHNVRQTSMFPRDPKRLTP
UniProt P99999: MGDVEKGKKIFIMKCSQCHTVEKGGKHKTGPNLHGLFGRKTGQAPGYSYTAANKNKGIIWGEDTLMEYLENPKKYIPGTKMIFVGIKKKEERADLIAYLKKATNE
UniProt Q7L1T6: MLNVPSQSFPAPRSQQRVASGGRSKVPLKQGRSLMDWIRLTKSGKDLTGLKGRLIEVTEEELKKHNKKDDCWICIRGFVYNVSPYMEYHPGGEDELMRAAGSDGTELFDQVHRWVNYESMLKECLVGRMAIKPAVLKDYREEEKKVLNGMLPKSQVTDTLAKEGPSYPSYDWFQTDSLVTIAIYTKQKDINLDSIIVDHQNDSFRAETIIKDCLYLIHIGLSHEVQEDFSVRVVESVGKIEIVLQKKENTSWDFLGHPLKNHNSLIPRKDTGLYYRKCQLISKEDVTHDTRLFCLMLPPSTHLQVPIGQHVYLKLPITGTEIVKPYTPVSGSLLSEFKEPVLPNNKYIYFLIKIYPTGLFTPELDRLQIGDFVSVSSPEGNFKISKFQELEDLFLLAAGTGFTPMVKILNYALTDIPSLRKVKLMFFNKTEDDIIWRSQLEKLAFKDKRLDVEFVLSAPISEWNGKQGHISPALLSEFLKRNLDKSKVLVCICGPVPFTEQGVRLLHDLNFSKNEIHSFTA
UniProt Q8TEB1, whole entry, looked up: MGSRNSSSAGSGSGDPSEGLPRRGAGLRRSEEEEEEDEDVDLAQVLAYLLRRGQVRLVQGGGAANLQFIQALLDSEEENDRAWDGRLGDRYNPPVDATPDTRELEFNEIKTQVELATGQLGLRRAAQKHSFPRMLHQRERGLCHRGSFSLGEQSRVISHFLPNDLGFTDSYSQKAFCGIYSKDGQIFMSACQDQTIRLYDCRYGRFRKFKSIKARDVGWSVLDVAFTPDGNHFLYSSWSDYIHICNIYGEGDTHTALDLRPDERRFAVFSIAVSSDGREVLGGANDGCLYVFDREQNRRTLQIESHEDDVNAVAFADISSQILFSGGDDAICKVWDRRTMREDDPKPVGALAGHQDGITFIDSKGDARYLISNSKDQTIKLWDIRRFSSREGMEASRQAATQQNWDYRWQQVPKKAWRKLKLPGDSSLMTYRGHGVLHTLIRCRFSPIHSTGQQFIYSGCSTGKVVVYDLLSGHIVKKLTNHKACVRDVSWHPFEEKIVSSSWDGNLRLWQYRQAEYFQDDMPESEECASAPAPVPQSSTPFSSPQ
UniProt O43310: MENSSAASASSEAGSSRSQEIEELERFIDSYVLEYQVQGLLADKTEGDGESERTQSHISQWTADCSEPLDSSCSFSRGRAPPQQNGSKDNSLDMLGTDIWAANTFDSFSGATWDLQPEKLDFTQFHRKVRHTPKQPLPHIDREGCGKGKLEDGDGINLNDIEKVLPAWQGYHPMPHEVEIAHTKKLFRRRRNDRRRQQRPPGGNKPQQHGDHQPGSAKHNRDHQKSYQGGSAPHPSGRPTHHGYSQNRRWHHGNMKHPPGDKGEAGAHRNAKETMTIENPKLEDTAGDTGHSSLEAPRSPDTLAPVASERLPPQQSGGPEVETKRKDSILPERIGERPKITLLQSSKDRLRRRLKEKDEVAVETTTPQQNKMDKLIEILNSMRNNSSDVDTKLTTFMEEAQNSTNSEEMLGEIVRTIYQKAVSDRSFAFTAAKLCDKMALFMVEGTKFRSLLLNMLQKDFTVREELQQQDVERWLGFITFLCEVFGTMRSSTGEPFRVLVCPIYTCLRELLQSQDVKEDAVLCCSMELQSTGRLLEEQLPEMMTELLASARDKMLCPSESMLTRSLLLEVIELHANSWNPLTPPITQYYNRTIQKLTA
UniProt Q13616, whole entry, looked up: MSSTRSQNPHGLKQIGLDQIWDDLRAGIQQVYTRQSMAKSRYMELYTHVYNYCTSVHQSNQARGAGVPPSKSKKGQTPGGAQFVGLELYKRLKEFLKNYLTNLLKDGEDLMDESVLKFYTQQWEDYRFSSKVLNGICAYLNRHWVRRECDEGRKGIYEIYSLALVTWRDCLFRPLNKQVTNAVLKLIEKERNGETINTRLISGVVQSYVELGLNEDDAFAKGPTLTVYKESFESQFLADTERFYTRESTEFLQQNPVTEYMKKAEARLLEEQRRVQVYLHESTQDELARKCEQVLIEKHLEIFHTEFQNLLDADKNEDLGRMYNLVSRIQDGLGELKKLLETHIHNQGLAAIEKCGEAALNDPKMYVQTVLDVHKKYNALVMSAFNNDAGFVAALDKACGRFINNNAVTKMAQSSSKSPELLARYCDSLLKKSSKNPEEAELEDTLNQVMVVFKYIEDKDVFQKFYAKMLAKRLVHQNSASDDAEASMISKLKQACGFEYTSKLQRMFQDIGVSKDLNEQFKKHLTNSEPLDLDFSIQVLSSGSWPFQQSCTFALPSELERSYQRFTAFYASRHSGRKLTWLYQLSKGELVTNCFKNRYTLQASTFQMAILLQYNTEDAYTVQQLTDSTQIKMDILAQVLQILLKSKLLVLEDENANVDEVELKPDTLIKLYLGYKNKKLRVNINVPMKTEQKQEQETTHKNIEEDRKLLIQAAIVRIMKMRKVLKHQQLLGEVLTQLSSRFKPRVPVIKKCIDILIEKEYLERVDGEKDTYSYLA
UniProt P04080: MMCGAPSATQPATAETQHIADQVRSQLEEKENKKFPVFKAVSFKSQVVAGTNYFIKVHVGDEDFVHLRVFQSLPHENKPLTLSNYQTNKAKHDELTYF
UniProt P32929, whole entry, looked up: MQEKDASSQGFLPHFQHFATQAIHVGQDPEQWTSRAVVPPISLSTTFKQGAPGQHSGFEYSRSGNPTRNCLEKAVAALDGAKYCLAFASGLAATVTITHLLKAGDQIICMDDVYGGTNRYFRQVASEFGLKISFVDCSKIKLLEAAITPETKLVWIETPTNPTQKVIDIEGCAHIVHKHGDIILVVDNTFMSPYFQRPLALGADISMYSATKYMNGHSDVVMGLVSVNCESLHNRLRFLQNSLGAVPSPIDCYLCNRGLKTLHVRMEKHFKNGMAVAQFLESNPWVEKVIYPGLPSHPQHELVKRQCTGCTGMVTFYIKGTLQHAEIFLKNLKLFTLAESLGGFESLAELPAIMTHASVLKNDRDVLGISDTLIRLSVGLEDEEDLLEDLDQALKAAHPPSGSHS
UniProt E9PJD7, whole entry, looked up: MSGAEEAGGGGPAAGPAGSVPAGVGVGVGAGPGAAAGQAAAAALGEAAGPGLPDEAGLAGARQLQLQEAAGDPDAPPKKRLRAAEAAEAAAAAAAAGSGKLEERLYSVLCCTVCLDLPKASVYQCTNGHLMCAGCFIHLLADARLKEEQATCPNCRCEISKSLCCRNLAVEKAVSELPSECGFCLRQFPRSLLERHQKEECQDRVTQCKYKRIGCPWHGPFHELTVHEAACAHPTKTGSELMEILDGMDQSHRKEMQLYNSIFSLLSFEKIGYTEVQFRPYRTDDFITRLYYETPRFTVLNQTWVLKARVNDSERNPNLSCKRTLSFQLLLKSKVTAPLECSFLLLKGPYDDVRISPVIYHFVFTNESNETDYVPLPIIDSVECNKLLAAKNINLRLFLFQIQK
UniProt Q9NPI6: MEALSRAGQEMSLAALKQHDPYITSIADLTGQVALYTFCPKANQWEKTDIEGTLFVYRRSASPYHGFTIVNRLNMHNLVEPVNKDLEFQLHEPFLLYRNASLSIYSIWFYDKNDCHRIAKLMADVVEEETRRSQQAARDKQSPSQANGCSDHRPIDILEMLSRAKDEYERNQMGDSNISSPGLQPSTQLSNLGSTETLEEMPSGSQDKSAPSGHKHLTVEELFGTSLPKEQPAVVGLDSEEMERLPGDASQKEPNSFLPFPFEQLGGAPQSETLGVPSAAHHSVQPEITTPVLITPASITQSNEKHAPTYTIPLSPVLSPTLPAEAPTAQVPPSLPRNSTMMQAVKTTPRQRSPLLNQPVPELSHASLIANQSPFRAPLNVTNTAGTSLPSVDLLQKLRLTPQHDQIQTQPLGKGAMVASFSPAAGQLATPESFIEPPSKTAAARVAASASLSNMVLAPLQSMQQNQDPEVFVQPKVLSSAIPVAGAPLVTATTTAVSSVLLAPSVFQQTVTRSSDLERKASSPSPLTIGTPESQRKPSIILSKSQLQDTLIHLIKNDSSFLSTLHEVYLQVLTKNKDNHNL
UniProt P0DMU9: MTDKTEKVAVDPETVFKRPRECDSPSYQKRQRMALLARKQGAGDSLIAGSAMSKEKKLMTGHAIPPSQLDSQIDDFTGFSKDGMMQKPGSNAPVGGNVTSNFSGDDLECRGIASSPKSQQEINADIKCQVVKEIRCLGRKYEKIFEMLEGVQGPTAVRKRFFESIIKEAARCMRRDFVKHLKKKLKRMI

compound: CC(C)(C)Cn1c(N)nc2ccc(-c3[nH]c(C(C)(C)C)nc3-c3ccc(F)cc3)nc21 [ralimetinib]; assay: log2 fold change, soluble protein after heating vs DMSO (PISA); higher = thermal stabilisation; K562 cells, 10 uM, 30 min; active = over 0.2 and 3.5 SD of the protein, either way, in both replicates (recomputed)
Procedure, shortened: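 Soluble protein was quantified by TMTpro 16plex LC-MS/MS after channel sums were equalised. It was obtained as the supernatant after 21,000xg for 90 min from pooled aliquots of K562 cells (2×10^6 cells/mL, 10 μM compound, 30 min) heated for 3 min across 48°C-58°C and extracted in PBS with 0.5% NP-40 at 4°C. Thermal stability values are relative to control samples and come from duplicates. They are given as log2 fold changes.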

log2 fold change, inactive:
CTPS2 (UniProt Q9NRF8) -0.026
CWC25 (UniProt Q9NXE8) 0.087
CYFIP2 (UniProt Q96F07) 0.035
CZIB (UniProt Q9NWV4) -0.062
DARS (UniProt P14868) 0.016
CYCS (UniProt P99999) -0.02
DARS2 (UniProt Q6PI48) 0.001
DAP3 (UniProt P51398) 0.009
CTBP1 (UniProt Q13363) -0.046
DCTN2 isoform 2 (UniProt Q13561) 0.044
CSTF1 (UniProt Q05048) -0.136
DCAKD (UniProt Q8WVC6) -0.02
DCK (UniProt P27707) 0.063
CYB5R4 (UniProt Q7L1T6) -0.037
CWF19L1 (UniProt Q69YN2) 0.016
DCAF11 (UniProt Q8TEB1) -0.025
CSTF2T (UniProt Q9H0L4) -0.005
CTU2 (UniProt Q2VPK5) -0.03
CUL2 isoform 2 (UniProt Q13617) -0.013
CTNNA2 (UniProt P26232) -0.041
CYB5R2 (UniProt Q6BCY4) -0.027
DCPS (UniProt Q96C86) -0.044
CTIF isoform 2 (UniProt O43310) 0.058
CUL1 (UniProt Q13616) -0.026
CTCF (UniProt P49711) 0.142
CSTB (UniProt P04080) -0.079
CUL3 (UniProt Q13618) -0.035
CTH (UniProt P32929) 0.006
CUL4B (UniProt K4DI93) -0.022
CYP20A1 (UniProt Q6UW02) -0.047
DCTN6 (UniProt O00399) 0.068
CYHR1 (UniProt E9PJD7) -0.111
CUTC (UniProt Q9NTM9) -0.038
DCP1A (UniProt Q9NPI6) 0.145
CSPP1 (UniProt Q1MSJ5) -0.146
DCAF1 (UniProt Q9Y4B6) -0.063
CT45A10 (UniProt P0DMU9) 0.01
CYB5R1 (UniProt Q9UHQ9) -0.106
DCTN3 (UniProt O75935) 0.018

Reprinted from the results shown for reference:
log2 fold change, inactive:
CTBP1 (UniProt Q13363) -0.046
DCTN2 isoform 2 (UniProt Q13561) 0.044
